# Measured values taken from the supplement of paper PMC8728848.
# Some of the results follow.
# B1: LlpA (Burkholderia cenocepacia) (protein)
# chain: MGSSHHHHHHSSGLVPRGSHKILGSNETLSAGNVVYSDNGQYHLAMQTDGNLVVYGPTGAVWQSQTSGSGGNRAVMQGDGNLVIYRADNTAAWSSKTAHPGAFLAVQDDGNVVIYWPRPAWASNTSDPATQQSAESKYLASGSTMSAGQTVTVAQYMLVFQADGNLVLYKNGGNPIWSTGTQGKGATYAVMQSDGNFVIYAGSTALWSTKTNGANGAQLVLQSDGNLVIYAPTAAWSTKFGLVTAPTSTSTSNNGPGSGICVGVCPPHPLNGNPFSPVGVGTTGLGFPTPGYPGAAF
# How the values were obtained:
# Assay in all cases: glycan array binding signal (z-score within array); higher = stronger binding
# Conditions in all cases: glycan notation: IUPAC condensed, linker removed
# [1] = target: Neu5Ac(a2-3)Gal(b1-3)[Neu5Ac(a2-6)]GlcNAc(b1-3)[Fuc(a1-3)[Gal(b1-4)]GlcNAc(b1-6)]Gal(b1-4)Glc
# Procedure, shortened: (§1)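 Glycan array binding is given as a within-array Z-score, which can be read as non-binding when negative. The arrays, 3228 of them, came from the Consortium for Functional Glycomics database and were retained only where the protein sequence was available. Z-scores were averaged across arrays of the same protein sequence at different concentrations or buffers and across linkers.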
# [2] = target: Neu5Ac(a2-3)Gal(b1-3)]Neu5Ac(a2-3)Gal(b1-4)]GlcNAc
# Procedure, shortened: as §1
# Neu5Ac(a2-3)Gal(b1-4)Glc = target: Neu5Ac(a2-3)Gal(b1-4)Glc
# Procedure, shortened: as §1
# [3] = target: Neu5Ac(a2-3)Gal(b1-4)GlcNAc
# Procedure, shortened: as §1
# [4] = target: Neu5Ac(a2-3)Gal(b1-4)GlcNAc(b1-2)Man
# Procedure, shortened: as §1
# [5] = target: Neu5Ac(a2-3)Gal(b1-4)GlcNAc(b1-2)Man(a1-3)[GlcNAc(b1-4)][Neu5Ac(a2-3)Gal(b1-4)GlcNAc(b1-2)Man(a1-6)]Man(b1-4)GlcNAc(b1-4)GlcNAc
# Procedure, shortened: as §1
# [6] = target: Neu5Ac(a2-3)Gal(b1-4)GlcNAc(b1-2)Man(a1-3)[Neu5Ac(a2-3)Gal(b1-4)GlcNAc(b1-2)Man(a1-6)]Man(b1-4)GlcNAc(b1-4)GlcNAc
# Procedure, shortened: as §1
# [7] = target: Neu5Ac(a2-3)Gal(b1-4)GlcNAc(b1-2)Man(a1-3)[Neu5Ac(a2-3)Gal(b1-4)GlcNAc(b1-2)Man(a1-6)]Man(b1-4)GlcNAc(b1-4)[Fuc(a1-6)]GlcNAc
# Procedure, shortened: as §1
# [8] = target: Neu5Ac(a2-3)Gal(b1-4)GlcNAc(b1-2)Man(a1-3)[Neu5Ac(a2-6)Gal(b1-4)GlcNAc(b1-2)Man(a1-6)]Man(b1-4)GlcNAc(b1-4)GlcNAc
# Procedure, shortened: as §1
# [9] = target: Neu5Ac(a2-3)Gal(b1-4)GlcNAc(b1-2)[Neu5Ac(a2-3)Gal(b1-4)GlcNAc(b1-4)]Man(a1-3)[GlcNAc(b1-4)][Neu5Ac(a2-3)Gal(b1-4)GlcNAc(b1-2)[Neu5Ac(a2-3)Gal(b1-4)GlcNAc(b1-6)]Man(a1-6)]Man(b1-4)GlcNAc(b1-4)GlcNAc
# Procedure, shortened: as §1
# [10] = target: Neu5Ac(a2-3)Gal(b1-4)GlcNAc(b1-2)[Neu5Ac(a2-3)Gal(b1-4)GlcNAc(b1-4)]Man(a1-3)[GlcNAc(b1-4)][Neu5Ac(a2-3)Gal(b1-4)GlcNAc(b1-4)Man(a1-6)]Man(b1-4)GlcNAc(b1-4)GlcNAc
# Procedure, shortened: as §1
# [11] = target: Neu5Ac(a2-3)Gal(b1-4)GlcNAc(b1-2)[Neu5Ac(a2-3)Gal(b1-4)GlcNAc(b1-6)]Man(a1-6)[Neu5Ac(a2-3)Gal(b1-4)GlcNAc(b1-2)Man(a1-3)][GlcNAc(b1-4)]Man(b1-4)GlcNAc(b1-4)GlcNAc
# Procedure, shortened: as §1
# [12] = target: Neu5Ac(a2-3)Gal(b1-4)GlcNAc(b1-3)Gal
# Procedure, shortened: as §1
# [13] = target: Neu5Ac(a2-3)Gal(b1-4)GlcNAc(b1-3)Gal(b1-3)GlcNAc
# Procedure, shortened: as §1
# [14] = target: Neu5Ac(a2-3)Gal(b1-4)GlcNAc(b1-3)Gal(b1-4)GlcNAc
# Procedure, shortened: as §1
# [15] = target: Neu5Ac(a2-3)Gal(b1-4)GlcNAc(b1-3)Gal(b1-4)GlcNAc(b1-2)Man(a1-3)[Neu5Ac(a2-3)Gal(b1-4)GlcNAc(b1-3)Gal(b1-4)GlcNAc(b1-2)Man(a1-6)]Man(b1-4)GlcNAc(b1-4)GlcNAc
# Procedure, shortened: as §1
# [16] = target: Neu5Ac(a2-3)Gal(b1-4)GlcNAc(b1-3)Gal(b1-4)GlcNAc(b1-3)Gal(b1-4)GlcNAc
# Procedure, shortened: as §1
# [17] = target: Neu5Ac(a2-3)Gal(b1-4)GlcNAc(b1-3)Gal(b1-4)GlcNAc(b1-3)Gal(b1-4)GlcNAc(b1-2)Man(a1-3)[Neu5Ac(a2-3)Gal(b1-4)GlcNAc(b1-3)Gal(b1-4)GlcNAc(b1-3)Gal(b1-4)GlcNAc(b1-2)Man(a1-6)]GalNAc
# Procedure, shortened: as §1
# [18] = target: Neu5Ac(a2-3)Gal(b1-4)GlcNAc(b1-3)Gal(b1-4)GlcNAc(b1-3)GalNAc
# Procedure, shortened: as §1
# [19] = target: Neu5Ac(a2-3)Gal(b1-4)GlcNAc(b1-3)Gal(b1-4)GlcNAc(b1-3)[Neu5Ac(a2-3)Gal(b1-4)GlcNAc(b1-3)Gal(b1-4)GlcNAc(b1-6)]GalNAc
# Procedure, shortened: as §1
# [20] = target: Neu5Ac(a2-3)Gal(b1-4)GlcNAc(b1-3)Gal(b1-4)GlcNAc(b1-6)[Gal(b1-3)]GalNAc
# Procedure, shortened: as §1
# [21] = target: Neu5Ac(a2-3)Gal(b1-4)GlcNAc(b1-3)Gal(b1-4)[Fuc(a1-3)]GlcNAc
# Procedure, shortened: as §1
# [22] = target: Neu5Ac(a2-3)Gal(b1-4)GlcNAc(b1-3)GalNAc
# Procedure, shortened: as §1
# [23] = target: Neu5Ac(a2-3)Gal(b1-4)GlcNAc(b1-3)[Neu5Ac(a2-3)Gal(b1-4)GlcNAc(b1-6)]GalNAc
# Procedure, shortened: as §1
# [24] = target: Neu5Ac(a2-3)Gal(b1-4)GlcNAc(b1-6)GalNAc
# Procedure, shortened: as §1
# [25] = target: Neu5Ac(a2-3)Gal(b1-4)GlcNAc(b1-6)[Gal(b1-3)]GalNAc
# Procedure, shortened: as §1
# [26] = target: Neu5Ac(a2-3)Gal(b1-4)GlcNAc(b1-6)[Neu5Ac(a2-3)Gal(b1-3)]GalNAc
# Procedure, shortened: as §1
# [27] = target: Neu5Ac(a2-3)Gal(b1-4)GlcNAc6S
# Procedure, shortened: as §1
# [28] = target: Neu5Ac(a2-3)Gal(b1-4)[Fuc(a1-3)]GlcNAc
# Procedure, shortened: as §1
# [29] = target: Neu5Ac(a2-3)Gal(b1-4)[Fuc(a1-3)]GlcNAc(b1-2)Man
# Procedure, shortened: as §1
# [30] = target: Neu5Ac(a2-3)Gal(b1-4)[Fuc(a1-3)]GlcNAc(b1-3)Gal
# Procedure, shortened: as §1
# [31] = target: Neu5Ac(a2-3)Gal(b1-4)[Fuc(a1-3)]GlcNAc(b1-3)Gal(b1-4)GlcNAc
# Procedure, shortened: as §1
# [32] = target: Neu5Ac(a2-3)Gal(b1-4)[Fuc(a1-3)]GlcNAc(b1-3)Gal(b1-4)[Fuc(a1-3)]GlcNAc(b1-3)Gal(b1-4)[Fuc(a1-3)]GlcNAc
# Procedure, shortened: as §1
# [33] = target: Neu5Ac(a2-3)Gal(b1-4)[Fuc(a1-3)]GlcNAc(b1-3)GalNAc
# Procedure, shortened: as §1
# [34] = target: Neu5Ac(a2-3)Gal(b1-4)[Fuc(a1-3)]GlcNAc(b1-6)[Gal(b1-3)]GalNAc
# Procedure, shortened: as §1
# [35] = target: Neu5Ac(a2-3)Gal(b1-4)[Fuc(a1-3)]GlcNAc(b1-6)[Neu5Ac(a2-3)Gal(b1-3)]GalNAc
# Procedure, shortened: as §1
# [36] = target: Neu5Ac(a2-3)Gal(b1-4)[Fuc(a1-3)]GlcNAc6S
# Procedure, shortened: as §1
# [37] = target: Neu5Ac(a2-3)Gal6S(b1-4)GlcNAc
# Procedure, shortened: as §1
binder,measurement,setting,value
B1,glycan array binding signal (z-score),[1],1.54
same,glycan array binding signal (z-score),[2],-0.161
same,glycan array binding signal (z-score),Neu5Ac(a2-3)Gal(b1-4)Glc,0.087
same,glycan array binding signal (z-score),[3],0.352
same,glycan array binding signal (z-score),[4],1.61
same,glycan array binding signal (z-score),[5],0.385
same,glycan array binding signal (z-score),[6],-0.726
same,glycan array binding signal (z-score),[7],0.547
same,glycan array binding signal (z-score),[8],0.547
same,glycan array binding signal (z-score),[9],-0.347
same,glycan array binding signal (z-score),[10],-0.194
same,glycan array binding signal (z-score),[11],0.512
same,glycan array binding signal (z-score),[12],0.858
same,glycan array binding signal (z-score),[13],0.055
same,glycan array binding signal (z-score),[14],-0.435
same,glycan array binding signal (z-score),[15],1.15
same,glycan array binding signal (z-score),[16],-0.68
same,glycan array binding signal (z-score),[17],0.783
same,glycan array binding signal (z-score),[18],0.147
same,glycan array binding signal (z-score),[19],0.599
same,glycan array binding signal (z-score),[20],-0.156
same,glycan array binding signal (z-score),[21],-0.636
same,glycan array binding signal (z-score),[22],-0.268
same,glycan array binding signal (z-score),[23],-0.688
same,glycan array binding signal (z-score),[24],-1.07
same,glycan array binding signal (z-score),[25],-0.021
same,glycan array binding signal (z-score),[26],-0.363
same,glycan array binding signal (z-score),[27],0.798
same,glycan array binding signal (z-score),[28],-0.785
same,glycan array binding signal (z-score),[29],-0.407
same,glycan array binding signal (z-score),[30],-0.73
same,glycan array binding signal (z-score),[31],-0.548
same,glycan array binding signal (z-score),[32],-0.356
same,glycan array binding signal (z-score),[33],1.38
same,glycan array binding signal (z-score),[34],1.57
same,glycan array binding signal (z-score),[35],-0.297
same,glycan array binding signal (z-score),[36],0.357
same,glycan array binding signal (z-score),[37],-1.05

# 2 entries from above, with tabs:
binder	measurement	setting	value
B1	glycan array binding signal (z-score)	Neu5Ac(a2-3)Gal(b1-4)Glc	0.087
same	glycan array binding signal (z-score)	[28]	-0.785
